# Data reported in the supplement of paper PMC8728848.
# This is one part of the list.
# B1: AntigenI/IIA3VP1 (Streptococcus mutans), C9E3B4 (protein)
# chain: AANEADYQAKLTAYQTELARVQKANADAKAAYEAAVAANNAANAALTAENTAIKKRNADAKADYEAKLAKYQADLAKYQKDLADYPVKLKAYEDEQASIKAALAELEKHKNEDGNLTEPSAQNLVYDLEPNANLSLTTDGKFLKASAVDDAFSKSTSKAKYDQKILQLDDLDITNLEQSNDVASSMELYGNFGDKAGWSTTVSNNSQVKWGSVLLERGQSATATYTNLQNSYYNGKKISKIVYKYTVDPKSKFQGQKVWLGIFTDPTLGVFASAYTGQVEKNTSIFIKNEFTFYDEDGKPINFDNALLSVASLNREHNSIEMAKDYSGKFVKISGSSIGEKNGMIYATDTLNFKQGEGGSRWTMYKNSQAGSGWDSSDAPNSWYGAGAIKMSGPNNYVTVGATSATNVMPVSDMPVVPGKDNTDGKKPNIWYSLNGKIRAVNVPKVTKEKPTPPVKPTAPTKPTYETEKPLKPAPVAPNYEKEPTPPTRLEHHHHHH
# Experiments:
# Assay in all cases: glycan array binding signal (z-score within array); higher = stronger binding
# Conditions in all cases: glycan notation: IUPAC condensed, linker removed
# [1] = molecular target: Neu5Ac(a2-6)GlcNAc(b1-4)GlcNAc(b1-4)GlcNAc
# Summary of the method: (§1)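 Glycan array binding is given as a within-array Z-score, which can be read as non-binding when negative. The arrays, 3228 of them, came from the Consortium for Functional Glycomics database and were retained only where the protein sequence was available. Z-scores were averaged across arrays of the same protein sequence at different concentrations or buffers and across linkers.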
# Neu5Ac(a2-8)Neu5Ac = molecular target: Neu5Ac(a2-8)Neu5Ac
# Summary of the method: as §1
# [2] = molecular target: Neu5Ac(a2-8)Neu5Ac(a2-3)Gal(b1-3)GalNAc(b1-4)[Neu5Ac(a2-3)]Gal(b1-4)Glc
# Summary of the method: as §1
# [3] = molecular target: Neu5Ac(a2-8)Neu5Ac(a2-3)Gal(b1-3)GalNAc(b1-4)[Neu5Ac(a2-8)Neu5Ac(a2-3)]Gal(b1-4)Glc
# Summary of the method: as §1
# [4] = molecular target: Neu5Ac(a2-8)Neu5Ac(a2-3)Gal(b1-4)Glc
# Summary of the method: as §1
# [5] = molecular target: Neu5Ac(a2-8)Neu5Ac(a2-3)Gal(b1-4)GlcNAc
# Summary of the method: as §1
# [6] = molecular target: Neu5Ac(a2-8)Neu5Ac(a2-3)[Gal(b1-3)GalNAc(b1-4)]Gal(b1-4)Glc
# Summary of the method: as §1
# [7] = molecular target: Neu5Ac(a2-8)Neu5Ac(a2-3)[GalNAc(b1-4)]Gal(b1-4)Glc
# Summary of the method: as §1
# [8] = molecular target: Neu5Ac(a2-8)Neu5Ac(a2-8)Neu5Ac
# Summary of the method: as §1
# [9] = molecular target: Neu5Ac(a2-8)Neu5Ac(a2-8)Neu5Ac(a2-3)Gal(b1-4)Glc
# Summary of the method: as §1
# [10] = molecular target: Neu5Ac(a2-8)Neu5Ac(a2-8)Neu5Ac(a2-3)[Gal(b1-3)GalNAc(b1-4)]Gal(b1-4)Glc
# Summary of the method: as §1
# [11] = molecular target: Neu5Ac(a2-8)Neu5Ac(a2-8)Neu5Ac(a2-3)[GalNAc(b1-4)]Gal(b1-4)Glc
# Summary of the method: as §1
# [12] = molecular target: Neu5Ac(a2-8)Neu5Ac(a2-8)Neu5Ac(a2-8)Neu5Ac(a2-3)[GalNAc(b1-4)]Gal(b1-4)Glc
# Summary of the method: as §1
# [13] = molecular target: Neu5Ac(a2-8)Neu5Gc(a2-3)Gal(b1-4)GlcNAc
# Summary of the method: as §1
# [14] = molecular target: Neu5Ac(b2-6)Gal(b1-4)GlcNAc
# Summary of the method: as §1
# Neu5Ac(b2-6)GalNAc = molecular target: Neu5Ac(b2-6)GalNAc
# Summary of the method: as §1
# [15] = molecular target: Neu5Ac9Ac(a2-3)Gal(b1-3)GlcNAc
# Summary of the method: as §1
# [16] = molecular target: Neu5Ac9Ac(a2-3)Gal(b1-4)GlcNAc
# Summary of the method: as §1
# [17] = molecular target: Neu5Ac9Ac(a2-6)Gal(b1-4)GlcNAc
# Summary of the method: as §1
# [18] = molecular target: Neu5Gc(a2-3)Gal(b1-3)GlcNAc
# Summary of the method: as §1
# [19] = molecular target: Neu5Gc(a2-3)Gal(b1-3)[Fuc(a1-4)]GlcNAc
# Summary of the method: as §1
# Neu5Gc(a2-3)Gal(b1-4)Glc = molecular target: Neu5Gc(a2-3)Gal(b1-4)Glc
# Summary of the method: as §1
# [20] = molecular target: Neu5Gc(a2-3)Gal(b1-4)GlcNAc
# Summary of the method: as §1
# [21] = molecular target: Neu5Gc(a2-3)Gal(b1-4)GlcNAc(b1-3)Gal(b1-4)GlcNAc(b1-2)Man(a1-3)[Neu5Gc(a2-3)Gal(b1-4)GlcNAc(b1-3)Gal(b1-4)GlcNAc(b1-2)Man(a1-6)]Man(b1-4)GlcNAc(b1-4)GlcNAc
# Summary of the method: as §1
# [22] = molecular target: Neu5Gc(a2-3)Gal(b1-4)[Fuc(a1-3)]GlcNAc
# Summary of the method: as §1
# [23] = molecular target: Neu5Gc(a2-6)Gal(b1-4)GlcNAc
# Summary of the method: as §1
# Neu5Gc(a2-6)GalNAc = molecular target: Neu5Gc(a2-6)GalNAc
# Summary of the method: as §1
# [24] = molecular target: Neu5Gc(a2-8)Neu5Ac(a2-3)Gal(b1-4)GlcNAc
# Summary of the method: as §1
# [25] = molecular target: Neu5Gc(a2-8)Neu5Gc(a2-3)Gal(b1-4)GlcNAc
# Summary of the method: as §1
# [26] = molecular target: Neu5Gc(a2-8)Neu5Gc(a2-3)Gal(b1-4)GlcNAc(b1-3)Gal(b1-4)GlcNAc
# Summary of the method: as §1
# [27] = molecular target: Neu5Gc(a2-8)Neu5Gc(a2-6)Gal(b1-4)GlcNAc
# Summary of the method: as §1
# [28] = molecular target: Neu5Gc(b2-6)Gal(b1-4)GlcNAc
# Summary of the method: as §1
binder,measurement,setting,value
B1,glycan array binding signal (z-score),[1],-0.713
same,glycan array binding signal (z-score),Neu5Ac(a2-8)Neu5Ac,-0.381
same,glycan array binding signal (z-score),[2],0.241
same,glycan array binding signal (z-score),[3],-0.035
same,glycan array binding signal (z-score),[4],-0.254
same,glycan array binding signal (z-score),[5],-0.757
same,glycan array binding signal (z-score),[6],-0.073
same,glycan array binding signal (z-score),[7],0.407
same,glycan array binding signal (z-score),[8],-0.735
same,glycan array binding signal (z-score),[9],-0.757
same,glycan array binding signal (z-score),[10],0.119
same,glycan array binding signal (z-score),[11],0.775
same,glycan array binding signal (z-score),[12],0.749
same,glycan array binding signal (z-score),[13],-0.976
same,glycan array binding signal (z-score),[14],0.331
same,glycan array binding signal (z-score),Neu5Ac(b2-6)GalNAc,-1.14
same,glycan array binding signal (z-score),[15],-1.54
same,glycan array binding signal (z-score),[16],-1.29
same,glycan array binding signal (z-score),[17],-0.505
same,glycan array binding signal (z-score),[18],-0.716
same,glycan array binding signal (z-score),[19],-0.885
same,glycan array binding signal (z-score),Neu5Gc(a2-3)Gal(b1-4)Glc,-0.071
same,glycan array binding signal (z-score),[20],-0.465
same,glycan array binding signal (z-score),[21],1.88
same,glycan array binding signal (z-score),[22],0.707
same,glycan array binding signal (z-score),[23],0.798
same,glycan array binding signal (z-score),Neu5Gc(a2-6)GalNAc,0.494
same,glycan array binding signal (z-score),[24],1.66
same,glycan array binding signal (z-score),[25],-0.703
same,glycan array binding signal (z-score),[26],-1.17
same,glycan array binding signal (z-score),[27],-1.3
same,glycan array binding signal (z-score),[28],1.01

# A run of entries taken from the entries so far, as a working copy:
binder,measurement,setting,value
B1,glycan array binding signal (z-score),[15],-1.54
same,glycan array binding signal (z-score),[16],-1.29
